# Reference: the supplement of paper PMC12009310
# Structures can show the parent of a compound that is named as a salt. ± gives the standard deviation of the averaged measurements. The list shows a part of the results. Baselines shift from plate to plate; read single values as rough.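 The cells are a mouse kidney inner medullary collecting duct line, silenced either for the ciliary gene Rpgrip1l or with a non-targeting control siRNA.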 Where a SMILES comes first, the peptide text is derived from it. [ ]: non-standard residue; d: D form.
# Legend:
# mIMCD3 [1] = test: robust z score of cell number vs plate controls; higher = more cells (less cytotoxic); settings: 10 µM, 48 h
# mIMCD3 [2] = test: robust z score of cilia incidence (% cells with single cilium) vs plate controls; higher = more ciliated cells; settings: 10 µM; 48 h; siRNA: siScr
# mIMCD3 [3] = test: robust z score of cilia incidence (% cells with single cilium) vs plate controls; higher = more ciliated cells (rescue of cilia loss); settings: 10 µM; 48 h; siRNA: siRpgrip1l
SMILES,robust z score of cell number (mIMCD3 [1]; siRNA: siRpgrip1l),robust z score of cell number (mIMCD3 [1]; siRNA: siScr),robust z score of cilia incidence (mIMCD3 [2]),robust z score of cilia incidence (mIMCD3 [3])
COc1ccccc1N1CCN(CCCCNC(=O)c2ccc(-c3ccc(C(C)=O)cc3)cc2)CC1,-19.9 ± 14,0.408 ± 5.7,-3.98 ± 1.3,-28.4 ± 1.9
CCOC(=O)C1=C(C)NC(C)=C(C(=O)OC)C1c1cccc([N+](=O)[O-])c1 (stereo not given) [Nitrendipine],-23 ± 14,-37.2 ± 43,0.81 ± 2.1,-9.85 ± 8.2
Nc1nc(F)nc2c1ncn2[C@@H]1O[C@H](CO)[C@@H](O)[C@@H]1O [Fludarabine],-14.2 ± 13,-7.82 ± 3.3,-5.26 ± 2.4,-3.77 ± 0.46
CCN(CC)CCCCN1c2ccccc2Oc2ccc(Cl)cc21 [10-DEBC hydrochloride],-32.5 ± 10,-143 ± 110,-67 ± 12,-58.4 ± 8.4
CN1CCN(C2=Cc3ccccc3Oc3ccc(Cl)cc32)CC1,-25.7 ± 3.3,-24.6 ± 3.5,-33.9 ± 11,-32.83 ± 0.14
Nc1c(S(=O)(=O)O)cc(Nc2cccc3ccccc23)c2c1C(=O)c1ccccc1C2=O,-27.9 ± 8.8,-128 ± 99,-40.6 ± 8.4,-46.8 ± 7.4
CN1CCC[C@@H]1Cc1c[nH]c2ccc(CCS(=O)(=O)c3ccccc3)cc12 [Eletriptan hydrobromide],16.4 ± 17,-3.22 ± 3.4,-8.01 ± 3.7,-235 ± 160
CC(=O)NCC(=O)N[C@H](CCC(=O)O)C(=O)O [N-Acetylglycyl-D-glutamic acid] (Ac-Gly-[dE]-OH),4.81 ± 2.8,-3.9 ± 16,0.84 ± 1.5,-7.54 ± 8.4
CC[C@H](C)C(=O)O[C@H]1C[C@H](O)C=C2C=C[C@H](C)[C@H](CC[C@@H](O)C[C@@H](O)CC(=O)O)[C@H]21 [Pravastatin sodium salt],-3.8 ± 2.8,-3.61 ± 0.24,0.388 ± 0.7,-9.76 ± 4.2
CCN(CC)CC1CCN(c2ncc3ncnc(Nc4ccc(F)c(Cl)c4)c3n2)CC1 [BIBU 1361 dihydrochloride],-29.9 ± 15,-27.5 ± 5,-47.6 ± 41,-33.2 ± 17
COc1cc2c(cc1O)CC[C@@H]1[C@@H]2CC[C@]2(C)[C@@H](O)CC[C@@H]12 [2-Methoxyestradiol],-39.3 ± 35,-39.7 ± 26,-94.6 ± 54,-95.5 ± 82
CNCC[C@@H](Oc1ccccc1C)c1ccccc1 [Tomoxetine hydrochloride],-5.58 ± 4.9,-1.25 ± 2.2,1.7 ± 0.99,-21.7 ± 20
CC(=O)N(O)[C@@H]1c2cc(C#N)ccc2OC(C)(C)[C@H]1O,-17.5 ± 18,-0.74 ± 1.9,-3.35 ± 5,-4.64 ± 0.28
COc1ccc2cccc(N3CCN(CCNC(=O)c4ccc(F)cc4)CC3)c2c1,-17.4 ± 17,-15.4 ± 5.2,-24.4 ± 30,-28.7 ± 11
O=C1NC(=O)c2c1c(-c1ccccc1)cc1[nH]c3ccc(O)cc3c21,-11.4 ± 9.2,0.539 ± 0.5,0.0913 ± 1.2,-4.42 ± 4.6
O=c1c(-c2ccc(O)cc2)coc2cc(O)ccc12 [Daidzein],-24.1 ± 19,-4.84 ± 2.6,-3.32 ± 2.5,-7.76 ± 1.3
C=CCNC(=O)c1cc([N+](=O)[O-])cc2c(=O)[nH]c(Nc3ccc(Cl)c(Cl)c3)nc12,-0.135 ± 2.1,-2.29 ± 1.6,-0.927 ± 0.31,-8.73 ± 0.65
C=C1C(=O)O[C@H]2[C@H]1CC/C(C)=C/CC[C@@]1(C)O[C@@H]21 [Parthenolide],-20.1 ± 14,-21.5 ± 18,2.26 ± 0.27,-8.14 ± 1.4
C=CC(=O)c1ccc2ccccc2c1,-24.4 ± 25,-5.04 ± 0.19,5.15 ± 3.6,-6.74 ± 1.8
Oc1ccc(-c2c(-c3ccccc3)nn3c(C(F)(F)F)cc(C(F)(F)F)nc23)cc1,-32.4 ± 11,-138 ± 100,-65.1 ± 16,-57.7 ± 8.4

# Copied from the list.
# Under robust z score of cell number (mIMCD3 [1]; siRNA: siScr), `CC(=O)NCC(=O)N[C@H](CCC(=O)O)C(=O)O` [N-Acetylglycyl-D-glutamic acid] (Ac-Gly-[dE]-OH) has the entry -3.9 ± 16
# Under robust z score of cell number (mIMCD3 [1]; siRNA: siScr), `O=c1c(-c2ccc(O)cc2)coc2cc(O)ccc12` [Daidzein] has the entry -4.84 ± 2.6
